Data: the supplement of paper PMC7666118
Some of the results follow.

Amino acid sequences for entries named in this document (tags omitted). A change or cut given only in a name is not applied to a line headed by its entry.
UniProt P49790, whole entry: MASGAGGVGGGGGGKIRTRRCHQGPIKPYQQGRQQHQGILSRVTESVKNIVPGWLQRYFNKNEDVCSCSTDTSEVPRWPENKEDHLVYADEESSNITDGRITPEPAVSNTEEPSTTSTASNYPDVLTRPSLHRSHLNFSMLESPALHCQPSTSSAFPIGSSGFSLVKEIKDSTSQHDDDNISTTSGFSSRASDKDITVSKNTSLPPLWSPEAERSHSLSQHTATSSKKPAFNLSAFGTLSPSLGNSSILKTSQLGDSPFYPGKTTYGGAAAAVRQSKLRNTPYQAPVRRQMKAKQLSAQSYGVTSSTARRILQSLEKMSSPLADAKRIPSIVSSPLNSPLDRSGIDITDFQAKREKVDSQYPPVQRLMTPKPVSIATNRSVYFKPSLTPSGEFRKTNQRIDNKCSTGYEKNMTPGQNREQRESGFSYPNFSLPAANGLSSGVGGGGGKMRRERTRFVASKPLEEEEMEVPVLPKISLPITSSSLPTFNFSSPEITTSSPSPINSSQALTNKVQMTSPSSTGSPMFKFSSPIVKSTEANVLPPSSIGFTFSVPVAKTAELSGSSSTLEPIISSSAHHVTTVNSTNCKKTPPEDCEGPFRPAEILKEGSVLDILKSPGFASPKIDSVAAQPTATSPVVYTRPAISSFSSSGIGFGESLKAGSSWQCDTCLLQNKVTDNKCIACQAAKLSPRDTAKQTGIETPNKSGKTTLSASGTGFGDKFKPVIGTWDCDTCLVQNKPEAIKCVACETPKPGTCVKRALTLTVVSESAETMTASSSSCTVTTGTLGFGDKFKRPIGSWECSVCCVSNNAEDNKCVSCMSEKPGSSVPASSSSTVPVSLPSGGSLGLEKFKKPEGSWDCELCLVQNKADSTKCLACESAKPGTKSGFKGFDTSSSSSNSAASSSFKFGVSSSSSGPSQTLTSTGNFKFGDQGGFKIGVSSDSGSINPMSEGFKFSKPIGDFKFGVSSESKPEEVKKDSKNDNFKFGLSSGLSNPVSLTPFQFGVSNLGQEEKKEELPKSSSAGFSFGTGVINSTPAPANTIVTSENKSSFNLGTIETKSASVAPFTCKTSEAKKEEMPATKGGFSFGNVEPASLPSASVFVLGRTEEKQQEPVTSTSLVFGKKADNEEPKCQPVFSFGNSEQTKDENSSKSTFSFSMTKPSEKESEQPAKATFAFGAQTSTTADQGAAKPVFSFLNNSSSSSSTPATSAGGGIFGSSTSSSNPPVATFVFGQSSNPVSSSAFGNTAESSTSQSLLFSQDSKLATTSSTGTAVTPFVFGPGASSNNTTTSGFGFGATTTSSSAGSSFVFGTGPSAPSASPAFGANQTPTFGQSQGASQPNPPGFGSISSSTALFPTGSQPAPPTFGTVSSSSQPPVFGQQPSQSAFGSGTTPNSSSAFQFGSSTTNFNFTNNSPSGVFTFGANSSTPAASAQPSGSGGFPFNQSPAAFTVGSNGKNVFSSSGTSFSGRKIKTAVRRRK
UniProt O00483, whole entry: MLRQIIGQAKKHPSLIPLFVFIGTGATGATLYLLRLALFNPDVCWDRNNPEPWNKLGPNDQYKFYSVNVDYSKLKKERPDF
UniProt Q16718, whole entry: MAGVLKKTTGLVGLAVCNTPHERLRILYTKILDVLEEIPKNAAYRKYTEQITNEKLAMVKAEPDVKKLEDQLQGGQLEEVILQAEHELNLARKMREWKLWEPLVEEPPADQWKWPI
UniProt Q6KC79: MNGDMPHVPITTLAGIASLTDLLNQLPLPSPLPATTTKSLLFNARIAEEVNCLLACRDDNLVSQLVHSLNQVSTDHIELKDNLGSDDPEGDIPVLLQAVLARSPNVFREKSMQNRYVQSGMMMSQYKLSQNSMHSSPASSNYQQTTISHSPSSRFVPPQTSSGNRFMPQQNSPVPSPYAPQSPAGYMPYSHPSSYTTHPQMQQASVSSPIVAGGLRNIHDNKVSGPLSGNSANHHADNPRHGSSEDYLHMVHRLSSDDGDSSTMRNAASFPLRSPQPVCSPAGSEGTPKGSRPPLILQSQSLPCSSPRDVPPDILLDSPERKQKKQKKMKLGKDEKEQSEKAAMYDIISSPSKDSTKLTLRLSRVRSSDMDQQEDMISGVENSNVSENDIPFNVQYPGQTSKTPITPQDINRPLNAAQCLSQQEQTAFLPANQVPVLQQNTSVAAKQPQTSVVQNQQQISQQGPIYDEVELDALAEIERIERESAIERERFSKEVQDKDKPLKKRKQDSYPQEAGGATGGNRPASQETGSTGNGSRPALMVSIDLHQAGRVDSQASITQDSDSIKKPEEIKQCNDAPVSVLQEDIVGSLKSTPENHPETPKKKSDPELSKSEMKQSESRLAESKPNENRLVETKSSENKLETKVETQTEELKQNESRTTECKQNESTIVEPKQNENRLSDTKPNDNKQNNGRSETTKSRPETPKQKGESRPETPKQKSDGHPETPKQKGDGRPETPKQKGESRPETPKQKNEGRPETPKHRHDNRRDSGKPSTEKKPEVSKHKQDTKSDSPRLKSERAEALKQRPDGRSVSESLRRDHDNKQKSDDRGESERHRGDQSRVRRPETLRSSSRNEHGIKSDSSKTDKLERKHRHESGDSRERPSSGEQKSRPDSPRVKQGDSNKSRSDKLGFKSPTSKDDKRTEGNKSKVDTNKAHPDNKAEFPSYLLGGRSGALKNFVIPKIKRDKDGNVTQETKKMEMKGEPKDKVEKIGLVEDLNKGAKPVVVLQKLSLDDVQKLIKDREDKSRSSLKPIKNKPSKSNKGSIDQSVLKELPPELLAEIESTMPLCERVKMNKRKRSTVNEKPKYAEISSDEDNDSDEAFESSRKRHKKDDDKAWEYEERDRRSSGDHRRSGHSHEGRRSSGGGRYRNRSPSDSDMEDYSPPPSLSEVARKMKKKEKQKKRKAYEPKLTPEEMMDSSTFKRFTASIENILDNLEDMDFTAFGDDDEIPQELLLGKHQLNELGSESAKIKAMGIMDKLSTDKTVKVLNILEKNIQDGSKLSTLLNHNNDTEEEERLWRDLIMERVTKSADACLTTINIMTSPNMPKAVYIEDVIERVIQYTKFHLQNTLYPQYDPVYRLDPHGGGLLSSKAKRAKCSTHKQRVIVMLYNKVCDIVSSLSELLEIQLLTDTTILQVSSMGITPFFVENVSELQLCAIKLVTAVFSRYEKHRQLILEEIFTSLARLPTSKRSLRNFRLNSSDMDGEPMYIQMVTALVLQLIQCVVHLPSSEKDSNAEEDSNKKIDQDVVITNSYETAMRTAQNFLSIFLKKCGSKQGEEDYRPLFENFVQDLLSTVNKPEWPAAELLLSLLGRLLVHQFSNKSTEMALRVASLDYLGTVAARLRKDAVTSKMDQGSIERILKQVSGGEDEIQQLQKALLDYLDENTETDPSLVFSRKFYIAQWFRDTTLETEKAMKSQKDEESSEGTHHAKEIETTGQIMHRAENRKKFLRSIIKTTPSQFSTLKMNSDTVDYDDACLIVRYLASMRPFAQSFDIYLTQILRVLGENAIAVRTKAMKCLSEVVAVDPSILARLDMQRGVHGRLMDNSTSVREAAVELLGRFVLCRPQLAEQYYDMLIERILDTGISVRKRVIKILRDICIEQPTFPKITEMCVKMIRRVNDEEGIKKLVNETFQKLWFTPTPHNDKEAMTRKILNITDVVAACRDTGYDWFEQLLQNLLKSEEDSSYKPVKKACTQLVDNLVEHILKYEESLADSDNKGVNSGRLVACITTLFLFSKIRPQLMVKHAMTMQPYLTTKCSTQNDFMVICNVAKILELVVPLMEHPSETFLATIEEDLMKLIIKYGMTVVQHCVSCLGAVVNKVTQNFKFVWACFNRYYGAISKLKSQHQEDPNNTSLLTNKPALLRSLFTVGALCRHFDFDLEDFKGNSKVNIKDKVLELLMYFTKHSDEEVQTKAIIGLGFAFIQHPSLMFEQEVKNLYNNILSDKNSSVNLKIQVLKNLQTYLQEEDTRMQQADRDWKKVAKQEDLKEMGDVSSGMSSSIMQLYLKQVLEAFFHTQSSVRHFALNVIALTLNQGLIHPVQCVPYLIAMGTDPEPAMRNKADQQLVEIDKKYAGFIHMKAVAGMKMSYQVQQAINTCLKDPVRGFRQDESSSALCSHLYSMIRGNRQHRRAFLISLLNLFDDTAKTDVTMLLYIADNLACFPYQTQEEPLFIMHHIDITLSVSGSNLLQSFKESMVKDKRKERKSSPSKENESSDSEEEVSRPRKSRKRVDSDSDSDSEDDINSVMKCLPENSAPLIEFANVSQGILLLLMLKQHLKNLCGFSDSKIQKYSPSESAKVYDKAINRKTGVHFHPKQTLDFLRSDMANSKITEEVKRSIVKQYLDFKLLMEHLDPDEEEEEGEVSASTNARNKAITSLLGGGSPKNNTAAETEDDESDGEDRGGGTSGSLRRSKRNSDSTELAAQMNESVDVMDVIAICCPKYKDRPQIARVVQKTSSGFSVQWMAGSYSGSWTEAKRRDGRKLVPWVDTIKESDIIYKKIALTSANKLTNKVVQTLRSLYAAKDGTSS
UniProt Q9Y221: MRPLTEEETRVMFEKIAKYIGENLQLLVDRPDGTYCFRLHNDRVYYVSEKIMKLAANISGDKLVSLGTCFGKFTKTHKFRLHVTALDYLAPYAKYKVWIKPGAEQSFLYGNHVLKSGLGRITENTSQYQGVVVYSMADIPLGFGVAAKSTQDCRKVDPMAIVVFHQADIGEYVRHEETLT
UniProt P51957: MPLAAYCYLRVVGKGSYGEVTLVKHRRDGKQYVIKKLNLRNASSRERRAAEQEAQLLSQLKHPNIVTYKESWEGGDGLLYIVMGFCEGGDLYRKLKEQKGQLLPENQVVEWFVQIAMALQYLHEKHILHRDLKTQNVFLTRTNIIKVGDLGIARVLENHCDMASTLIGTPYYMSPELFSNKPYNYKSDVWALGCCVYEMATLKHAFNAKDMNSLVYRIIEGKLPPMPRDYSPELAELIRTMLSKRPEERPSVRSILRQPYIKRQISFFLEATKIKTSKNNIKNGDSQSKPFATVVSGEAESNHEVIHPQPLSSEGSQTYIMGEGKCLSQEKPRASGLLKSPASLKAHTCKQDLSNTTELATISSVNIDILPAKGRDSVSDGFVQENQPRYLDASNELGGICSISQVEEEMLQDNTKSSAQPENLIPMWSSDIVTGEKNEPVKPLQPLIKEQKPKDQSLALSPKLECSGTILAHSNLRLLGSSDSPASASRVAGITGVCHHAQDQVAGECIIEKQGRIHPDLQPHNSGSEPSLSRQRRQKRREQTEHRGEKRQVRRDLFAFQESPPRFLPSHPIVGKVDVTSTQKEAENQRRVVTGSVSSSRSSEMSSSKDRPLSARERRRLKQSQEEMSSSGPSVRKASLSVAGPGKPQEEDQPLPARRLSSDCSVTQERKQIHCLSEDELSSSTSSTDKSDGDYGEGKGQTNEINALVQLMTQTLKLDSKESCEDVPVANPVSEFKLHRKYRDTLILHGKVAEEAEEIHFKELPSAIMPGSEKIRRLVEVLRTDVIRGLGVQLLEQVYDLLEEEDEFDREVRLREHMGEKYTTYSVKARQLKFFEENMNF
UniProt O15504: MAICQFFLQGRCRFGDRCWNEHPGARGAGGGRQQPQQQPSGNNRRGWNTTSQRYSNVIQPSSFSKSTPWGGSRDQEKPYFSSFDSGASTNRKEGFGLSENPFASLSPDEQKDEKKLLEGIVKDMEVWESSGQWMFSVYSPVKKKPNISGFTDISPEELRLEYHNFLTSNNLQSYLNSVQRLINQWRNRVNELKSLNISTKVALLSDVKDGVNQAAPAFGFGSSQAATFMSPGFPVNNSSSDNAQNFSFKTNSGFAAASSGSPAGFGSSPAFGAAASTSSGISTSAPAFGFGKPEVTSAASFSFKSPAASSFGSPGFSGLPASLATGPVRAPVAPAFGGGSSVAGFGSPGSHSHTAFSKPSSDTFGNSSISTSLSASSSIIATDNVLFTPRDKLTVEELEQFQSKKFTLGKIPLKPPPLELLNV
UniProt P25208: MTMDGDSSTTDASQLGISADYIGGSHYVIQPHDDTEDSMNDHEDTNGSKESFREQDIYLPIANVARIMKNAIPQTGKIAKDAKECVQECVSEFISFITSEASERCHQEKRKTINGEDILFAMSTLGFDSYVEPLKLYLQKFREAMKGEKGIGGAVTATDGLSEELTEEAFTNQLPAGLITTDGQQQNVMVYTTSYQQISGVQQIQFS
UniProt Q8WV22: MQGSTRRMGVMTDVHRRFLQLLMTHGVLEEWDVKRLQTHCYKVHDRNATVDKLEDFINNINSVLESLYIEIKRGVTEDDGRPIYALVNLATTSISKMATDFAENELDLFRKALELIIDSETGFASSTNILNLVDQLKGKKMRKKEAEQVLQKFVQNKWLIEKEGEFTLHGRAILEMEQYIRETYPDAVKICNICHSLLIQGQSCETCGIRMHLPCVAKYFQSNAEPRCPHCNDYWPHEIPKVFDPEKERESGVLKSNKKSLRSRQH
UniProt P50583: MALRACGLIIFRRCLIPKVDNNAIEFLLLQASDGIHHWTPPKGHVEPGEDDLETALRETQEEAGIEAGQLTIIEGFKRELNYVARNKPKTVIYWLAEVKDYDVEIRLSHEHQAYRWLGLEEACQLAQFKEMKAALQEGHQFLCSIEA

These targets were tested with COc1ccc(Cn2ccc3cc(C)c(C(=O)NO)cc32)cc1 (assay: dose-dependent thermal stabilisation call (2D-TPP, DLPTP, 10% FDR) (binary (1 = stabilised)); higher = stabilised by the compound). Details: system: HL-60 intact cells; concentration range 0.04-10 µM.
Method: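 2D thermal proteome profiling in intact HL-60 cells treated with BRD-3811 (0, 0.04, 0.29, 2, 10 uM) for 90 min at 37 C, then heated 3 min at one of 12 temperatures (42-63.9 C). Soluble protein was quantified by TMT10 MS. The value is the DLPTP call of the paper: dose-dependent thermal stabilisation over all temperatures at 10% FDR (F-test of a dose-response against a flat model); one experiment, one call per tested protein.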

Target	dose-dependent thermal stabilisation call
NMD3 (UniProt Q96D46)	inactive: 0
OGDH (UniProt Q02218)	inactive: 0
NUCB1 (UniProt Q02818)	inactive: 0
NUP153 (UniProt P49790)	inactive: 0
NUP62 (UniProt P37198)	inactive: 0
NDUFA4 (UniProt O00483)	inactive: 0
NDUFA12 (UniProt Q9UI09)	inactive: 0
NDUFA5 (UniProt Q16718)	inactive: 0
NSL1 (UniProt Q96IY1)	inactive: 0
NT5DC3 (UniProt Q86UY8)	inactive: 0
NOL9 (UniProt Q5SY16)	inactive: 0
NIPBL (UniProt Q6KC79)	inactive: 0
NCBP1 (UniProt Q09161)	inactive: 0
NUDT3 (UniProt O95989)	inactive: 0
NIP7 (UniProt Q9Y221)	inactive: 0
NDUFA11 (UniProt Q86Y39)	inactive: 0
NEK4 (UniProt P51957)	inactive: 0
NARS2 (UniProt Q96I59)	inactive: 0
NUP93 (UniProt Q8N1F7)	inactive: 0
NCOA7 (UniProt Q8NI08)	inactive: 0
NANS (UniProt Q9NR45)	inactive: 0
NUPL2 (UniProt O15504)	inactive: 0
NDUFA13 (UniProt Q9P0J0)	inactive: 0
NAT12 (UniProt Q147X3)	inactive: 0
NFYB (UniProt P25208)	inactive: 0
NSMCE1 (UniProt Q8WV22)	inactive: 0
NUDT2 (UniProt P50583)	inactive: 0

Rewritten as comma-separated lines: entries from further up
Target,dose-dependent thermal stabilisation call
NIP7 (UniProt Q9Y221),inactive: 0
NUP93 (UniProt Q8N1F7),inactive: 0
